Experimental data as given in US8299048B2, “Hexahydrocyclopentyl[f]indazole sulfonamides and derivatives thereof as selective glucocorticoid receptor modulators” (Merck Sharp & Dohme Corp., priority 2008, dated 2012).
Some entries share one result that the patent states for a list of compounds.

What follows are compounds tested against T1, glucocorticoid receptor (Homo sapiens, UniProt P04150) (assay: Ligand binding assay (GR BIND)). Settings: displacement of 3H-DEX, MDA-MB-453 cell lysate, DEX as reference.
T1 construct: endogenous in cells
T1 sequence (P04150 1-777): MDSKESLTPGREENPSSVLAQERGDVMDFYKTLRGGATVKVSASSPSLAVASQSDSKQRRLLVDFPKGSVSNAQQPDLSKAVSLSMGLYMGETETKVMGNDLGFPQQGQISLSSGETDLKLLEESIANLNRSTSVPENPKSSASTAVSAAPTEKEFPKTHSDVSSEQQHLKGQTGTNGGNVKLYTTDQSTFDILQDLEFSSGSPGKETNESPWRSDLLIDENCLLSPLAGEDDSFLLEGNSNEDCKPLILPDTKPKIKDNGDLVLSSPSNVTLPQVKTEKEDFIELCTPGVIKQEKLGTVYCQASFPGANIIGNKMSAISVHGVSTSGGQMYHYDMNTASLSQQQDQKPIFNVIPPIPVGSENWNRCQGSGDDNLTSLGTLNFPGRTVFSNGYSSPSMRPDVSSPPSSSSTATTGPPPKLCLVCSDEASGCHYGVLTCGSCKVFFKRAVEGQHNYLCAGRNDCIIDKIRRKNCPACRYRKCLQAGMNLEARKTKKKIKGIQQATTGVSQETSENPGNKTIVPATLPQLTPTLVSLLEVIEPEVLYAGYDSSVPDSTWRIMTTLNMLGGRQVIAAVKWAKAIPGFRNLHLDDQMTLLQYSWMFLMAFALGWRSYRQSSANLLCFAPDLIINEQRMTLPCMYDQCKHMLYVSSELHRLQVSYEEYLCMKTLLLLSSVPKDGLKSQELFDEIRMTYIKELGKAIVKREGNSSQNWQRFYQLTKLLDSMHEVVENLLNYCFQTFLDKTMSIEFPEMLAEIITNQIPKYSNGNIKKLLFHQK
How it was run: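 Cytosol from freeze–thawed cells in TEGM (pH 7.2, 10 mM molybdate) was incubated overnight at 4 °C with compound and [3H]-dexamethasone trace (added as 6 nM solution), 2% EtOH final. Bound ligand was captured on hydroxylapatite, filtered, washed and scintillation counted. Values were calculated with dexamethasone as reference.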
With `CN(C[C@H]1CCC2=Cc3c(cnn3-c3ccc(F)cc3)C[C@@]21C)S(=O)(=O)CC(F)(F)F` [Example 177, 2,2,2-trifluoro-N-{[(4αR,5S)-1-(4-fluorophenyl)-4α-methyl-1,4,4α,5,6,7-hexahydrocyclopenta[f]indazol-5-yl]methyl}-N-methylethanesulfonamide] the IC50 was < 1000 nM.
For `CCN(C[C@H]1CCC2=Cc3c(cnn3-c3ccc(F)cc3)C[C@@]21C)S(=O)(=O)c1c(C)noc1C` [Example 178, N-ethyl-N-{[(4αR,5S)-1-(4-fluorophenyl)-4α-methyl-1,4,4α,5,6,7-hexahydrocyclopenta[f]indazol-5-yl]methyl}-3,5-dimethylisoxazole-4-sulfonamide], the IC50 was < 1000 nM.
For `CCN(C[C@H]1CCC2=Cc3c(cnn3-c3ccc(F)cc3)C[C@@]21C)S(=O)(=O)CC(F)(F)F` [Example 179, N-ethyl-2,2,2-trifluoro-N-{[(4αR,5S)-1-(4-fluorophenyl)-4α-methyl-1,4,4α,5,6,7-hexahydrocyclopenta[f]indazol-5-yl]methyl}ethanesulfonamide], the IC50 was < 1000 nM.
In the case of `COC(=O)c1ccccc1CS(=O)(=O)N(C[C@H]1CCC2=Cc3c(cnn3-c3ccc(F)cc3)C[C@@]21C)C[C@@H](C)O` [Example 180, methyl 2-[({{[(4αR,5S)-1-(4-fluorophenyl)-4α-methyl-1,4,4α,5,6,7-hexahydrocyclopenta[f]indazol-5-yl]methyl}[(2R)-2-hydroxypropyl]amino}sulfonyl)methyl]benzoatee], the IC50 is reported as < 1000 nM.
In the case of `COC(=O)c1ccccc1CS(=O)(=O)N(C[C@H]1CCC2=Cc3c(cnn3-c3ccc(F)cc3)C[C@@]21C)C[C@H](C)O` [Example 181, methyl 2-[({{[(4αR,5S)-1-(4-fluorophenyl)-4α-methyl-1,4,4α,5,6,7-hexahydrocyclopenta[f]indazol-5-yl]methyl}[(2S)-2-hydroxypropyl]amino}sulfonyl)methyl]benzoate], the IC50 is reported as < 1000 nM.
In the case of `C[C@@H](O)CN(C[C@H]1CCC2=Cc3c(cnn3-c3ccc(F)cc3)C[C@@]21C)S(=O)(=O)Cc1ccccc1C(=O)O` [Example 182, 2-[({{[(4αR,5S)-1-(4-fluorophenyl)-4α-methyl-1,4,4α,5,6,7-hexahydrocyclopenta[f]indazol-5-yl]methyl}[(2R)-2-hydroxypropyl]amino}sulfonyl)methyl]benzoic acid], the IC50 is reported as < 1000 nM.
For `C[C@H](O)CN(C[C@H]1CCC2=Cc3c(cnn3-c3ccc(F)cc3)C[C@@]21C)S(=O)(=O)Cc1ccccc1C(=O)O` [Example 183, 2-[({{[(4αR,5S)-1-(4-fluorophenyl)-4α-methyl-1,4,4α,5,6,7-hexahydrocyclopenta[f]indazol-5-yl]methyl}[(2S)-2-hydroxypropyl]amino}sulfonyl)methyl]benzoic acid], the IC50 was < 1000 nM.
`C[C@@H](O)CN(C[C@H]1CCC2=Cc3c(cnn3-c3ccc(F)cc3)C[C@@]21C)S(=O)(=O)Cc1ccccc1C(N)=O` [Example 184, 2-[({{[(4αR,5S)-1-(4-fluorophenyl)-4α-methyl-1,4,4α,5,6,7-hexahydrocyclopenta[f]indazol-5-yl]methyl}[(2R)-2-hydroxypropyl]amino}sulfonyl)methyl]benzamide] was tested, and the IC50 was < 1000 nM.
`C[C@H](O)CN(C[C@H]1CCC2=Cc3c(cnn3-c3ccc(F)cc3)C[C@@]21C)S(=O)(=O)Cc1ccccc1C(N)=O` [Example 185, 2-[({{[(4αR,5S)-1-(4-fluorophenyl)-4α-methyl-1,4,4α,5,6,7-hexahydrocyclopenta[f]indazol-5-yl]methyl}[(2S)-2-hydroxypropyl]amino}sulfonyl)methyl]benzamide] was tested, and the IC50 was < 1000 nM.
With `COC(=O)c1ccccc1S(=O)(=O)N(C[C@H]1CCC2=Cc3c(cnn3-c3ccc(F)cc3)C[C@@]21C)C[C@@H](C)O` [Example 186, methyl 2-({{[(4αR,5S)-1-(4-fluorophenyl)-4α-methyl-1,4,4α,5,6,7-hexahydrocyclopenta[f]indazol-5-yl]methyl}[(2R)-2-hydroxypropyl]amino}sulfonyl)benzoate] the IC50 was < 1000 nM.
In the case of `COC(=O)c1ccccc1S(=O)(=O)N(C[C@H]1CCC2=Cc3c(cnn3-c3ccc(F)cc3)C[C@@]21C)C[C@H](C)O` [Example 187, methyl 2-({{[(4αR,5S)-1-(4-fluorophenyl)-4α-methyl-1,4,4α,5,6,7-hexahydrocyclopenta[f]indazol-5-yl]methyl}[(2S)-2-hydroxypropyl]amino}sulfonyl)benzoate], the IC50 is reported as < 1000 nM.
`COC(=O)c1ccccc1CS(=O)(=O)N(CCc1ccccc1F)C[C@H]1CCC2=Cc3c(cnn3-c3ccc(F)cc3)C[C@@]21C` [Example 188, methyl 2-{[([2-(2-fluorophenyl)ethyl]{[(4αR,5S)-1-(4-fluorophenyl)-4α-methyl-1,4,4α,5,6,7-hexahydrocyclopenta[f]indazol-5-yl]methyl}amino)sulfonyl]methyl}benzoate] was tested, and the IC50 was < 1000 nM.
In the case of `COC(=O)c1ccccc1S(=O)(=O)N(CCc1ccccc1F)C[C@H]1CCC2=Cc3c(cnn3-c3ccc(F)cc3)C[C@@]21C` [Example 189, methyl 2-[([2-(2-fluorophenyl)ethyl]{[(4αR,5S)-1-(4-fluorophenyl)-4α-methyl-1,4,4α,5,6,7-hexahydrocyclopenta[f]indazol-5-yl]methyl}amino)sulfonyl]benzoate], the IC50 is reported as < 1000 nM.
In the case of `C[C@]12Cc3cnn(-c4ccc(F)cc4)c3C=C1CC[C@@H]2CN(CCc1ccccc1F)S(=O)(=O)Cc1ccccc1C(N)=O` [Example 190, 2-{[([2-(2-fluorophenyl)ethyl]{[(4αR,5S)-1-(4-fluorophenyl)-4α-methyl-1,4,4α,5,6,7-hexahydrocyclopenta[f]indazol-5-yl]methyl}amino)sulfonyl]methyl}benzamide], the IC50 is reported as < 1000 nM.
For `C[C@]12Cc3cnn(-c4ccc(F)cc4)c3C=C1CC[C@@H]2CN(CC1CCCO1)S(=O)(=O)c1ccc(C(N)=O)cc1` (stereo partly drawn) [Example 191, 4-{[{[(4αR,5S)-1-(4-fluorophenyl)-4α-methyl-1,4,4α,5,6,7-hexahydrocyclopenta[f]indazol-5-yl]methyl}(tetrahydrofuran-2-ylmethyl)amino]sulfonyl}benzamide], the IC50 was < 1000 nM.
For `C[C@]12Cc3cnn(-c4ccc(F)cc4)c3C=C1CC[C@@H]2CN(Cc1ccccc1F)S(=O)(=O)c1cccc(C(N)=O)c1` [Example 192, 3-[((2-fluorobenzyl){[(4αR,5S)-1-(4-fluorophenyl)-4α-methyl-1,4,4α,5,6,7-hexahydrocyclopenta[f]indazol-5-yl]methyl}amino)sulfonyl]benzamide], the IC50 was < 1000 nM.
For `C[C@]12Cc3cnn(-c4ccc(F)cc4)c3C=C1CC[C@@H]2CN(CCCc1ccccc1)S(=O)(=O)CC(F)(F)F` [Example 193, 2,2,2-trifluoro-N-{[(4αR,5S)-1-(4-fluorophenyl)-4α-methyl-1,4,4α,5,6,7-hexahydrocyclopenta[f]indazol-5-yl]methyl}-N-(3-phenylpropyl)ethanesulfonamide], the IC50 was < 1000 nM.
`Cc1noc(C)c1S(=O)(=O)N(CCCc1ccccc1)C[C@H]1CCC2=Cc3c(cnn3-c3ccc(F)cc3)C[C@@]21C` [Example 194, N-{[(4αR,5S)-1-(4-fluorophenyl)-4α-methyl-1,4,4α,5,6,7-hexahydrocyclopenta[f]indazol-5-yl]methyl}-3,5-dimethyl-N-(3-phenylpropyl)isoxazole-4-sulfonamide] was tested, and the IC50 was < 1000 nM.
In the case of `C[C@]12Cc3cnn(-c4ccc(F)cc4)c3C=C1CC[C@@H]2CN(CCCc1ccccc1)S(=O)(=O)c1ccccc1F` [Example 195, 2-fluoro-N-{[(4αR,5S)-1-(4-fluorophenyl)-4α-methyl-1,4,4α,5,6,7-hexahydrocyclopenta[f]indazol-5-yl]methyl}-N-(3-phenylpropyl)benzenesulfonamide], the IC50 is reported as < 1000 nM.
For `C[C@]12Cc3cnn(-c4ccc(F)cc4)c3C=C1CC[C@@H]2CN(CCc1ccccn1)S(=O)(=O)Cc1ccccc1C(N)=O` [Example 196, 2-({[{[(4αR,5S)-1-(4-fluorophenyl)-4α-methyl-1,4,4α,5,6,7-hexahydrocyclopenta[f]indazol-5-yl]methyl}(2-pyridin-2-ylethyl)amino]sulfonyl}methyl)benzamide], the IC50 was < 1000 nM.
`CC([C@H]1CCC2=Cc3c(cnn3-c3ccc(F)cc3)C[C@@]21C)N(CCc1ccccn1)S(=O)(=O)Cc1cccnc1` (stereo partly drawn) [Example 197, N-{1-[(4αR)-1-(4-fluorophenyl)-4α-methyl-1,4,4α,5,6,7-hexahydrocyclopenta[f]indazol-5-yl]ethyl}-1-pyridin-3-yl-N-(2-pyridin-2-ylethyl)methanesulfonamide] was tested, and the IC50 was < 1000 nM.
In the case of `C[C@]12Cc3cnn(-c4ccc(F)cc4)c3C=C1CC[C@@H]2CN(CCO)S(=O)(=O)Cc1ccccc1C(N)=O` [Example 198, 2-({[{[(4αR,5S)-1-(4-fluorophenyl)-4α-methyl-1,4,4α,5,6,7-hexahydrocyclopenta[f]indazol-5-yl]methyl}(2-hydroxyethyl)amino]sulfonyl}methyl)benzamide], the IC50 is reported as < 1000 nM.
